ChEMBL document CHEMBL1157379, “Transcriptional response of Candida parapsilosis following exposure to farnesol” (2007)
This continues a long series; more values of the same kind are listed elsewhere.

Columns and labels:
Assay type in all cases: functional
[1] = system: Candida parapsilosis; experiment: Increase in CGD gene ortholog accession number orf19.6973 expression in Candida parapsilosis CLIB214 at 50 uM after 2 hrs by microarray based transcriptional profiling relative to control
[2] = system: Candida parapsilosis; experiment: Decrease in CGD gene ortholog accession number orf19.6100 expression in Candida parapsilosis CLIB214 at 50 uM after 2 hrs by microarray based transcriptional profiling relative to control
[3] = system: Candida parapsilosis; experiment: Increase in CGD gene ortholog accession number orf19.7020 expression in Candida parapsilosis CLIB214 at 50 uM after 2 hrs by microarray based transcriptional profiling relative to control
[4] = system: Candida parapsilosis; experiment: Decrease in CGD gene ortholog accession number orf19.3235 expression in Candida parapsilosis CLIB214 at 50 uM after 2 hrs by microarray based transcriptional profiling relative to control
[5] = system: Candida parapsilosis; experiment: Increase in STI1 gene expression in Candida parapsilosis CLIB214 at 50 uM after 2 hrs by microarray based transcriptional profiling relative to control
[6] = system: Candida parapsilosis; experiment: Decrease in CGD gene ortholog accession number orf19.2194 expression in Candida parapsilosis CLIB214 at 50 uM after 2 hrs by microarray based transcriptional profiling relative to control
[7] = system: Candida parapsilosis; experiment: Decrease in HSP30 gene expression in Candida parapsilosis CLIB214 at 50 uM after 2 hrs by microarray based transcriptional profiling relative to control
[8] = system: Candida parapsilosis; experiment: Increase in CGD gene ortholog accession number orf19.171 expression in Candida parapsilosis CLIB214 at 50 uM after 2 hrs by microarray based transcriptional profiling relative to control
[9] = system: Candida parapsilosis; experiment: Decrease in CGD gene ortholog accession number orf19.4595 expression in Candida parapsilosis CLIB214 at 50 uM after 2 hrs by microarray based transcriptional profiling relative to control
[10] = system: Candida parapsilosis; experiment: Decrease in CGD gene ortholog accession number orf19.3458 expression in Candida parapsilosis CLIB214 at 50 uM after 2 hrs by microarray based transcriptional profiling relative to control
[11] = system: Candida parapsilosis; experiment: Decrease in CGD gene ortholog accession number orf19.6816 expression in Candida parapsilosis CLIB214 at 50 uM after 2 hrs by microarray based transcriptional profiling relative to control
[12] = system: Candida parapsilosis; experiment: Increase in GenBank accession number NP_943641.1 expression in Candida parapsilosis CLIB214 at 50 uM after 2 hrs by microarray based transcriptional profiling relative to control
[13] = system: Candida parapsilosis; experiment: Decrease in CGD gene ortholog accession number orf19.6984 expression in Candida parapsilosis CLIB214 at 50 uM after 2 hrs by microarray based transcriptional profiling relative to control
[14] = system: Candida parapsilosis; experiment: Increase in NADH51 gene expression in Candida parapsilosis CLIB214 at 50 uM after 2 hrs by microarray based transcriptional profiling relative to control
[15] = system: Candida parapsilosis; experiment: Increase in CHO2 gene expression in Candida parapsilosis CLIB214 at 50 uM after 2 hrs by microarray based transcriptional profiling relative to control
[16] = system: Candida parapsilosis; experiment: Decrease in CGD gene ortholog accession number orf19.6254 expression in Candida parapsilosis CLIB214 at 50 uM after 2 hrs by microarray based transcriptional profiling relative to control
[17] = system: Candida parapsilosis; experiment: Increase in CGD gene ortholog accession number orf19.7243 expression in Candida parapsilosis CLIB214 at 50 uM after 2 hrs by microarray based transcriptional profiling relative to control
[18] = system: Candida parapsilosis; experiment: Increase in CGD gene ortholog accession number orf19.5378 expression in Candida parapsilosis CLIB214 at 50 uM after 2 hrs by microarray based transcriptional profiling relative to control
[19] = system: Candida parapsilosis; experiment: Decrease in CGD gene ortholog accession number orf19.4763 expression in Candida parapsilosis CLIB214 at 50 uM after 2 hrs by microarray based transcriptional profiling relative to control
[20] = system: Candida parapsilosis; experiment: Increase in CGD gene ortholog accession number orf19.2982 expression in Candida parapsilosis CLIB214 at 50 uM after 2 hrs by microarray based transcriptional profiling relative to control

## CC(C)=CCC/C(C)=C/CC/C(C)=C/CO [FARNESOL]
[1]
  fold change (FC): 1.53
[2]
  fold change (FC): 1.65
[3]
  fold change (FC): 1.59
[4]
  fold change (FC): 1.7
[5]
  fold change (FC): 2.71
[6]
  fold change (FC): 1.96
[7]
  fold change (FC): 2.14
[8]
  fold change (FC): 3.8
[9]
  fold change (FC): 1.95
[10]
  fold change (FC): 1.65
[11]
  fold change (FC): 2.36
[12]
  fold change (FC): 2.03
[13]
  fold change (FC): 1.75
[14]
  fold change (FC): 2.74
[15]
  fold change (FC): 1.6
[16]
  fold change (FC): 1.64
[17]
  fold change (FC): 1.87
[18]
  fold change (FC): 1.66
[19]
  fold change (FC): 1.87
[20]
  fold change (FC): 1.59
